Data reported in PubChem BioAssay (NCATS).
This list was built around the results that the source calls inconclusive (neither active nor inactive); the mix of calls is not that of the screen. Active and inactive are the calls of the source. Calls come from the whole dose curve; as a rule, active = well fitted curve in either direction with a large enough effect (not every such curve was filed as active); inconclusive = small, poorly fitted or top-dose-only effect, or another doubt; inactive = flat fitted curve, though single readings scatter.
% is set by controls: 0 for no effect and ±100 for the full control effect.

Experiment: Stat Signaling Pathway (AID 446);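 note: ME-180 cervical cancer cells given 40 pM IL-6 alongside compound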
Conditions: ME-180 (cervical carcinoma) SIE beta-lactamase reporter, IL-6 stimulated, 5 h; at 7.69 µM (top of the series) unless noted
Description: NCGC Assay Overview: The IL-6/STAT signaling pathway was assayed in ME-180 cervical carcinoma cells by a beta-lactamase reporter gene controlled by a STAT Inducible Element (SIE). This reporter is induced by IL-6 at 40 pM AC50 and inhibited by the pan JAK inhibitor, 2-(1,1-Dimethylethyl)-9-fluoro-3,6-dihydro-7H-benz[h]-imidaz[4,5-f]isoquinolin-7-one, at approximately 10 nM AC50. Plated cells were incubated overnight and on the following day, stimulated with 40 pM IL-6 for 5 hrs. The assay was screened at the AC50 of IL-6 activation to identify both inhibitors and activators of IL-6/STAT signaling.
NCGC Assay Protocol Summary: Cells were trypsinized, washed in assay medium (AM, OPTI MEM with 0.5% fetal bovine serum, 0.1 mM nonessential amino acids, 1 mM sodium pyruvate, 10mM HEPES pH 7.3, 100U/ml penicillin, and 100 ug/ml streptomycin) and suspended at 6 x 10e5/ml in AM. Approximately […] cells in 5 uL/well was dispensed into 1536 well plates and the cells were incubated overnight at 37 C. 23 nL of compound were delivered by a pin tool and 1 uL of IL-6 (40 pM final concentration in AM) was added. After centrifugation at 1000 rpm for less than a minute, plates were incubated at 37C for 5 hrs. One uL of detector mix (LiveBLAzerTM, Invitrogen) was added, the plates incubated at room temperature for 2.5 hrs, and fluorescence intensity at 460 and 530 nm emission was measured at 405 nm excitation by an Envision (Perkin Elmer) or Safire II (Tecan). Data were normalized by GeneData to the controls for AC90 stimulation (300 pM IL-6) and to AC90 inhibition (125 nM Jak inhibitor, 40 pM IL-6 in AM).
In the case of `COc1ccc(-n2c(=O)c(-c3cccs3)nc3cnc(N4CCNCC4)nc32)cc1`, the activity, negative = inhibition is reported as inconclusive: 188% [activator].
In the case of `COc1ccc(-c2nc3cnc(Nc4ccccc4)nc3n(Cc3cccs3)c2=O)cc1`, the activity, negative = inhibition is reported as inconclusive: 74.2% [activator].
With `N#CCCn1c(=O)c(-c2cc(F)cc(F)c2)nc2cnc(Oc3cccc(Cl)c3)nc21` the activity, negative = inhibition was inactive: 12.5%.
For `Cc1cc(N)c2ccccc2[n+]1CCCCCCCCCCCCCC[n+]1c(C)cc(N)c2ccccc21`, the activity, negative = inhibition was inconclusive: -46.7% [inhibitor] [at 38 µM].
For `N#CCCn1c(=O)c(-c2cccs2)nc2cnc(N3CCNCC3)nc21`, the activity, negative = inhibition was inconclusive: 84.7% [activator].
For `CN1CCN(c2ncc3nc(-c4cn(C)c5ccccc45)c(=O)n(CCc4ccccc4)c3n2)CC1`, the activity, negative = inhibition was inconclusive: 102% [activator].
In the case of `C[C@@]12C(=O)OC(=O)[C@]1(C)[C@H]1CC[C@@H]2O1`, the activity, negative = inhibition is reported as active: -85.9% [at 17.2 µM].
In the case of `COc1cccc2c1C(=O)c1c(O)c3c(c(O)c1C2=O)C[C@](O)(C(=O)CO)C[C@H]3O[C@@H]1C[C@H](N)[C@H](O)[C@H](C)O1`, the activity, negative = inhibition is reported as active: 92.4% [activator] [at 17.2 µM].
With `O=C(c1ccncc1)N1CCC2(CC1)CCN(c1ncccn1)CC2` the activity, negative = inhibition was inconclusive: -30.6% [inhibitor].
For `COc1ccc(C(=O)N2CCC3(CCCN(C(=O)Nc4cccc(F)c4)C3)CC2)cc1`, the activity, negative = inhibition was inactive: -13.8%.
With `CC[N+](CC)(CC)CC` the activity, negative = inhibition was inconclusive: -38.9% [inhibitor] [at 38 µM].
In the case of `CCNc1ncc2nc(-c3ccc(F)cc3)c(=O)n(C[C@H]3CCCO3)c2n1`, the activity, negative = inhibition is reported as inconclusive: 35.5% [activator].
In the case of `COc1cccc(Nc2ncc3ncc(=O)n(C4CC4)c3n2)c1`, the activity, negative = inhibition is reported as inactive: -24.1%.
With `CN(C)c1ccc(-c2nc(NCc3cccnc3)c3ccccc3n2)cc1` the activity, negative = inhibition was inactive: 19.7%.
With `COCCn1c(=O)c(-c2cn(C)c3ccccc23)nc2cnc(N3CCNCC3)nc21` the activity, negative = inhibition was inconclusive: 42.4% [activator].
In the case of `Cc1noc(C)c1-c1nccc(NCc2ccccc2)n1`, the activity, negative = inhibition is reported as inactive: -0.39%.
With `COc1ccc(-c2nc3cnc(N4CCNCC4)nc3n(C3CC3)c2=O)cc1` the activity, negative = inhibition was inconclusive: 106% [activator].
For `CCCCN1CCC(n2c(=O)[nH]c3ccccc32)CC1`, the activity, negative = inhibition was inconclusive: 4.98% [activator] [at 38 µM].
With `CN(C)c1ncc2nc(-c3cc(F)cc(F)c3)c(=O)n(Cc3ccc(F)cc3)c2n1` the activity, negative = inhibition was inconclusive: 115% [activator].
With `CN1CCN(c2ncc3nc(-c4ccc(Cl)cc4)c(=O)n(Cc4ccc(F)cc4)c3n2)CC1` the activity, negative = inhibition was inconclusive: 233% [activator].
With `N#Cc1ccccc1-c1cncnc1NCc1cccnc1` the activity, negative = inhibition was inconclusive: 32.3% [activator].
In the case of `Cn1c(=O)c(-c2cc(F)cc(F)c2)nc2cnc(Oc3ccccc3)nc21`, the activity, negative = inhibition is reported as inactive: 0.814%.
With `O=c1c(-c2ccc(F)cc2)nc2cnc(N3CCNCC3)nc2n1-c1ccccc1` the activity, negative = inhibition was inconclusive: 225% [activator].
With `O=C(Nc1ccccc1)N1CCC2(CC1)CCN(C(=O)c1cnccn1)CC2` the activity, negative = inhibition was inactive: 2.97%.
In the case of `COCCn1c(=O)c(-c2ccc(Cl)cc2)nc2cnc(N3CCNCC3)nc21`, the activity, negative = inhibition is reported as inconclusive: 273% [activator].
With `COc1ccc(NC(=O)N2CC3(CCN(C(C)=O)CC3)C2)cc1` the activity, negative = inhibition was inactive: -0.267%.
For `COc1ccc(-c2nc3cnc(Nc4ccccc4)nc3n(C[C@H]3CCCO3)c2=O)cc1`, the activity, negative = inhibition was inconclusive: 39.8% [activator].
For `Cc1cccc(CNc2ccnc(-c3cccc(NS(C)(=O)=O)c3)n2)c1`, the activity, negative = inhibition was inconclusive: -54.5% [inhibitor].
With `Cn1cc(C(F)(F)F)nc1-c1ccc(OC[C@@H](O)CNCCOc2ccc(O)c(C(N)=O)c2)cc1` the activity, negative = inhibition was inconclusive: -40.9% [inhibitor] [at 38 µM].
With `C=CCc1ccccc1OC[C@H](O)CNC(C)C` the activity, negative = inhibition was inconclusive: -38.5% [inhibitor] [at 38 µM].
With `COc1ccc(CNc2ncnc3ccc(-c4c(C)noc4C)cc23)c(OC)c1` the activity, negative = inhibition was inconclusive: -62.2% [inhibitor].
For `COc1ccccc1-c1nc(N2CCN(C)CC2)c2ccccc2n1`, the activity, negative = inhibition was inactive: 13.7%.
For `O=C(c1csnn1)N1CCC2(CC1)CN(c1cccc(-c3ccccc3)c1)C2`, the activity, negative = inhibition was inconclusive: -4.62% [inhibitor].
With `O=C(c1ccncc1)N1CCC2(CCN(Cc3cc(C(F)(F)F)cc(C(F)(F)F)c3)CC2)CC1` the activity, negative = inhibition was inactive: -0.397%.
In the case of `C[N+](C)(C)CCC(=O)c1cccc2ccccc12`, the activity, negative = inhibition is reported as active: -81.5% [at 38 µM].
In the case of `O=c1cnc2cnc(Oc3ccccc3)nc2n1Cc1ccc(F)cc1`, the activity, negative = inhibition is reported as inactive: 18.8%.
For `Cc1cccc(CNc2ncnc3ccc(-c4ccc(C(=O)N(C)C)cc4)cc23)c1`, the activity, negative = inhibition was inconclusive: -43.2% [inhibitor].
With `O=c1cc(-c2ccccc2)[nH]c2nc(Cl)ccc12` the activity, negative = inhibition was inactive: -25.2% [at 38 µM].
For `CCNc1ncc2nc(-c3ccc(F)cc3)c(=O)n(-c3ccccc3)c2n1`, the activity, negative = inhibition was inconclusive: 65.5% [activator].
With `Cn1cc(-c2nc3cnc(N4CCNCC4)nc3n(CCc3ccccc3)c2=O)c2ccccc21` the activity, negative = inhibition was inconclusive: 201% [activator].
